Values from PubChem BioAssay AID686943 (Drosophila RNAi Screening Center, 2013)
The deposit covers about 23,000 reagents; this is a random part of those that have a named target and a result. 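Extra replicates exist only for a retested subset of genes; insulin dose and duration not given; both raised and lowered dpERK matter.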 A plus sign joins genes that one reagent is predicted to hit. Not given: the amount of reagent, the time to read-out.

- Aim: 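Knockdowns that increase or decrease active ERK after insulin receptor stimulation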 (primary screen)
- Cell system: Drosophila S2R+ haemocyte-like cells expressing YFP-tagged ERK (Rolled)
- Reagents: long dsRNA against Drosophila genes
- Challenge: insulin stimulation versus unstimulated cells; dose and duration not given
- Measurement: 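Antibody staining for doubly phosphorylated ERK divided by ERK-YFP signal, as plate z-scores, in insulin-treated and untreated cells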
- Direction: replicate 1, z-score of dpERK with insulin and replicate 2, z-score of dpERK with insulin: higher = more active ERK per ERK-YFP after insulin; replicate 1, z-score of dpERK under basal conditions: higher = more basal active ERK per ERK-YFP; replicate 1, z-score of ERK-YFP with insulin: higher = more YFP-tagged ERK signal

target gene,amplicon,"replicate 1, z-score of dpERK with insulin","replicate 2, z-score of dpERK with insulin","replicate 1, z-score of dpERK under basal conditions","replicate 1, z-score of ERK-YFP with insulin"
Hat1 (GeneID 40716),DRSC12298,0.35,0.6,0.16,0.27
CG9706 (GeneID 39876),DRSC11095,-0.01,0.04,0.44,-0.36
side (GeneID 43300),DRSC14523,3.18,1.13,-0.62,-1.35
side (GeneID 43300),DRSC14716,0.23,-0.13,0.5,0.49
side (GeneID 43300),DRSC14717,0.12,0,0.46,-0.45
side (GeneID 43300),DRSC14718,0.71,0,-1.02,-0.26
side (GeneID 43300),DRSC14721,0.57,0.16,-0.39,0.12
raw (GeneID 44851),DRSC03599,-6.97,-4.88,-0.79,-1.4
raw (GeneID 44851),DRSC03600,-3.84,-3.18,-0.97,0.11
CG9932 (GeneID 34701),DRSC03275,-0.85,-0.55,-0.42,0.02
CG5509 (GeneID 41539),DRSC15822,0.49,0.49,1.19,0.24
Cluap1 (GeneID 33142),DRSC20637,0.66,0.1,0.59,-0.41
RNaseP:RNA (GeneID 3772418),DRSC22967,0.42,-1.43,1.41,0.89
ND-20L (GeneID 43477),DRSC15414,0.76,0.03,-0.54,0.3
CG6938 (GeneID 39362),DRSC10752,-0.09,-0.07,-0.34,0.01
Kpc1 (GeneID 41826),DRSC16107,0.49,0.1,-0.72,-1.71
CG42380 + CG42379 + PIG-M + 1 more,DRSC03884,-0.79,-1.43,0.09,-0.7
CG42380 + CG42379 + PIG-M + 1 more,DRSC04580,-0.95,-1.05,1.04,1.38
Amy-d + Amy-p,DRSC21242,0.19,-0.3,0.04,-0.09
trh (GeneID 38065),DRSC08355,0.95,0.34,-0.78,0.39
trh (GeneID 38065),DRSC08739,0.01,0.83,0.79,0.07
PDZ-GEF (GeneID 33881),DRSC03231,-1.53,0.47,-1.37,-0.72

Records listed so far whose target name starts with R or r:
target gene,amplicon,"replicate 1, z-score of dpERK with insulin","replicate 2, z-score of dpERK with insulin","replicate 1, z-score of dpERK under basal conditions","replicate 1, z-score of ERK-YFP with insulin"
raw (GeneID 44851),DRSC03599,-6.97,-4.88,-0.79,-1.4
raw (GeneID 44851),DRSC03600,-3.84,-3.18,-0.97,0.11
RNaseP:RNA (GeneID 3772418),DRSC22967,0.42,-1.43,1.41,0.89

More records:
target gene,amplicon,"replicate 1, z-score of dpERK with insulin","replicate 2, z-score of dpERK with insulin","replicate 1, z-score of dpERK under basal conditions","replicate 1, z-score of ERK-YFP with insulin"
CG14879 (GeneID 41982),DRSC15003,1.1,-0.26,-0.13,-0.43
fd59A (GeneID 37631),DRSC04685,0.52,-0.48,0.41,-0.03
CG11837 (GeneID 43429),DRSC14397,-0.74,0.88,0.46,0.51
Jhedup (GeneID 36779),DRSC07173,0.41,0.25,0.05,0.37
CG33340 (GeneID 2768682),DRSC14615,-0.66,0.08,-0.27,0.34
cal1 (GeneID 42065),DRSC15725,0.12,-0.02,0.22,-0.4
CG15278 (GeneID 34865),DRSC02481,-0.59,-0.05,-0.96,0.8
CG14015 (GeneID 33780),DRSC02346,0.18,0.5,-0.17,0.01
CG13028 (GeneID 2768967),DRSC09908,1.08,0.2,0.83,0.32
CG15071 (GeneID 37153),DRSC06504,0.4,0.37,1.24,0.55
JIL-1 (GeneID 39241),DRSC11200,4.22,3.73,-0.41,-0.8
CG9215 (GeneID 32494),DRSC20171,-1.83,-2.69,-0.02,0.71
Slmap (GeneID 3355127),DRSC03799,-0.89,-0.12,-0.59,0.86
cwo (GeneID 44669),DRSC17072,-0.8,-0.64,1.58,0.85
Taf13 (GeneID 35297),DRSC02106,0.36,-0.68,-1.66,0.08
CG3587 (GeneID 31160),DRSC18541,0.14,1.03,-0.42,-0.6
CG3587 (GeneID 31160),DRSC21966,-0.3,0.39,0.1,-0.26
